Results: article PMC6079455, “Discovery of Novel Caeridins from the Skin Secretion of the Australian White's Tree Frog, Litoria caerulea” (International Journal of Genomics, 2018)
Ends that are not written are not given here.

Experiment: Secondary structure from CD spectra by K2D3
Assay type: physicochemical
Conditions: K2D3 programme, 100 μM peptide, 20°C, 10 mM NH4Ac with 50% TFE

Substance | α (helices) [%] | β (strands) [%]
GLFDIVGKLLGGLGL-NH2 [Caeridin-a1] | 95.13 | 0.02
N2H-GLLDSLLGGLGL-CONH2 [S5-Caeridin-1, novel Caeridin peptide from Litoria caerulea skin secretion, synthetic replicate, C-terminally amidated] | 94.98 | 0.01
GLLDGLLGTLGL-NH2 [Caeridin-1] | 86.68 | 0.02
